From article PMC7695362
These are yes or no findings as the source states them, for the method shown. Binding seen in cells or lysates may run through a third protein. Some results given as binding are weak or reduced against the parent protein; the word gives no strength.

The chains behind the UniProt entries cited, without tags or fusion partners. Where a name states a change or a piece, a line headed by the entry shows the natural chain unless it says otherwise. Residues count along the entry.
UniProt P08069, residues 31-1367: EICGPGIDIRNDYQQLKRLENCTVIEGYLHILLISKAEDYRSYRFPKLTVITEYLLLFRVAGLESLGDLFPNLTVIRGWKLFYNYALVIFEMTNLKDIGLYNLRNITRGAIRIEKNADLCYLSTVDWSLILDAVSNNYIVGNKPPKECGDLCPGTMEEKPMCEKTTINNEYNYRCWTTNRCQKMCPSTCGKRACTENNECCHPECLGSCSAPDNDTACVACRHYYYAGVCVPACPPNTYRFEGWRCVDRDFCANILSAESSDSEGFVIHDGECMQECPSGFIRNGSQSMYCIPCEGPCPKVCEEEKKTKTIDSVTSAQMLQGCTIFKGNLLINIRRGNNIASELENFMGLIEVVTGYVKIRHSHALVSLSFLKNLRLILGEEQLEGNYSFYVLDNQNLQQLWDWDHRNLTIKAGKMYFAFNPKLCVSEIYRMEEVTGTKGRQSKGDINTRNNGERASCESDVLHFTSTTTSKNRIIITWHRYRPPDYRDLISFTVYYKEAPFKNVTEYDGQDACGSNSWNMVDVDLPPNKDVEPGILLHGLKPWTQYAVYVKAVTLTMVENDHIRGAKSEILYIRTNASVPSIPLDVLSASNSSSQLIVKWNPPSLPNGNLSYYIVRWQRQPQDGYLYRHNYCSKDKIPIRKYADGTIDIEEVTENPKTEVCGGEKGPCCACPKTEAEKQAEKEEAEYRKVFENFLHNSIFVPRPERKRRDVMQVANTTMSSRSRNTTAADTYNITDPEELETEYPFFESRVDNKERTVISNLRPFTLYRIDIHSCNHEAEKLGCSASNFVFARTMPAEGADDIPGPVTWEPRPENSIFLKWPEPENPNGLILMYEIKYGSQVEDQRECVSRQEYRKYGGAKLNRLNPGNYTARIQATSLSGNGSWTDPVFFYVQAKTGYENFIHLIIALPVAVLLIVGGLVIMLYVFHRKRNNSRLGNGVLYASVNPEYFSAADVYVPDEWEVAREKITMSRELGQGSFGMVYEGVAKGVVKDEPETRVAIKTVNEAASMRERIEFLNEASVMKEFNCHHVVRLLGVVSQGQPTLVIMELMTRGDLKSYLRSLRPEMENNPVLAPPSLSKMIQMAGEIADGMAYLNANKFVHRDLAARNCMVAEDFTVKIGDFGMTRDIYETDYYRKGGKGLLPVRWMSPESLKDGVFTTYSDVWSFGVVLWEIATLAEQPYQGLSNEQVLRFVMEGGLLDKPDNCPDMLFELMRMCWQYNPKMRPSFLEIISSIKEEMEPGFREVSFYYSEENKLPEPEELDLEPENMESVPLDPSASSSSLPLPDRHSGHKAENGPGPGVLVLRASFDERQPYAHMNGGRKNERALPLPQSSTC
UniProt Q86TM6: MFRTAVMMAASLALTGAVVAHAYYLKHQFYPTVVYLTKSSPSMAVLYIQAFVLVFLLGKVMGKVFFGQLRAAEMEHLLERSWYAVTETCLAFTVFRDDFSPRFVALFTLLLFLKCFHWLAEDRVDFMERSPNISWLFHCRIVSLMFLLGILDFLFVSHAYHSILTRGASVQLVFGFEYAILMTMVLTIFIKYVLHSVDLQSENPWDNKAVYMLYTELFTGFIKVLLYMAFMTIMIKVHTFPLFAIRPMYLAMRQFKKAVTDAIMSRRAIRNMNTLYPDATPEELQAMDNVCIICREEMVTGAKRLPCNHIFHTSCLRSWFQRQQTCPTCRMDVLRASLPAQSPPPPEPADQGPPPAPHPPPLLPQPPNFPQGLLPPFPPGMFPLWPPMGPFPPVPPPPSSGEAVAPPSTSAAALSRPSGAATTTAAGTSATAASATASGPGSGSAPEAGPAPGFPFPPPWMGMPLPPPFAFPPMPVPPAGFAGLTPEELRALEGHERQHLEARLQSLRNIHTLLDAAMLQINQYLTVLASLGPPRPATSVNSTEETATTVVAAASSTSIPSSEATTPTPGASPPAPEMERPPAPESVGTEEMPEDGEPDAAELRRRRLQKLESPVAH

Target: insulin-like growth factor-1 receiver (IGF-1R) (human (endogenous in HSF)) (UniProt P08069)
Test: co-IP; HSF cells transduced with Ad-NC, Ad-shRNA-Hrd1 or Ad-Hrd1, MG-132 for 4 h, lysed in RIPA buffer with protease/phosphatase inhibitors; precipitated with anti-IGF-1R antibody and protein-A/G magnetic beads, blotted for Hrd1

## Hrd1 (hydroxymethylglutaryl coenzyme A reductase degrades protein 1) (from UniProt Q86TM6 1-617)
  binding: binds

## Hrd1 overexpressed from adenovirus Ad-Hrd1 (from UniProt Q86TM6-1 1-617) (enzyme)
  binding: binds
